In PMC4335056:
No constants are given. Whether binding was seen depends on the method and setting. Binding seen in cells or lysates may run through a third protein. Some results given as binding are weak or reduced against the parent protein; the word gives no strength. Where a sequence is shown, tags or fusion partners need not be part of it.

What was measured:
[1] = biological target: T1, TwinkleFLAG (mtDNA helicase Twinkle with a FLAG tag at its C-terminus) (UniProt Q96RR1); test: cross-linking + co-IP; whole cells cross-linked with 1% formaldehyde for 10 min at RT, lysed, TwinkleFLAG captured on FLAG resin, eluted with 3xFLAG peptide, eluates analysed by Western blot; mtDNA-containing HEK293 Flp-In T-Rex cells; controls without cross-linking and with mtLucFLAG
T1 sequence: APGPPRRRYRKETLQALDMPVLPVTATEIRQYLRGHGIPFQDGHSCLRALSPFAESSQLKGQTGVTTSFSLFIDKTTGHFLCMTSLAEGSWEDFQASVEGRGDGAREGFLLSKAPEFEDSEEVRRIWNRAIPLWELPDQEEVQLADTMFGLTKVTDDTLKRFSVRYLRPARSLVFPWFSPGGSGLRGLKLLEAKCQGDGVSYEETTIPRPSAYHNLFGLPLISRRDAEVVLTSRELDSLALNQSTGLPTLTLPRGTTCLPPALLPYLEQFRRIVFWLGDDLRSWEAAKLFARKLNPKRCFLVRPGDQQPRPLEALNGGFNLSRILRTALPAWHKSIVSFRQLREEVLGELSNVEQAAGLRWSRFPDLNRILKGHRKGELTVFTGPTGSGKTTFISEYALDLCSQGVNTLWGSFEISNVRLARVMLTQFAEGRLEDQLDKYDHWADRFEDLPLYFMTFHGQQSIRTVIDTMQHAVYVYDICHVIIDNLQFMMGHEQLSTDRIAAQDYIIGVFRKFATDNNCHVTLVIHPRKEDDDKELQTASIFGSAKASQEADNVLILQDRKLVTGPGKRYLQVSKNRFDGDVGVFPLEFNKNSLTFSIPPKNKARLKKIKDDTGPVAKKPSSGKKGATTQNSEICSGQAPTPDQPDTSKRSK

[2] = biological target: T2, TwinkleFLAG (mtDNA helicase Twinkle with a FLAG tag at its C-terminus), Q96RR1; test: as above; details: remark: other sources report otherwise
T2 chain: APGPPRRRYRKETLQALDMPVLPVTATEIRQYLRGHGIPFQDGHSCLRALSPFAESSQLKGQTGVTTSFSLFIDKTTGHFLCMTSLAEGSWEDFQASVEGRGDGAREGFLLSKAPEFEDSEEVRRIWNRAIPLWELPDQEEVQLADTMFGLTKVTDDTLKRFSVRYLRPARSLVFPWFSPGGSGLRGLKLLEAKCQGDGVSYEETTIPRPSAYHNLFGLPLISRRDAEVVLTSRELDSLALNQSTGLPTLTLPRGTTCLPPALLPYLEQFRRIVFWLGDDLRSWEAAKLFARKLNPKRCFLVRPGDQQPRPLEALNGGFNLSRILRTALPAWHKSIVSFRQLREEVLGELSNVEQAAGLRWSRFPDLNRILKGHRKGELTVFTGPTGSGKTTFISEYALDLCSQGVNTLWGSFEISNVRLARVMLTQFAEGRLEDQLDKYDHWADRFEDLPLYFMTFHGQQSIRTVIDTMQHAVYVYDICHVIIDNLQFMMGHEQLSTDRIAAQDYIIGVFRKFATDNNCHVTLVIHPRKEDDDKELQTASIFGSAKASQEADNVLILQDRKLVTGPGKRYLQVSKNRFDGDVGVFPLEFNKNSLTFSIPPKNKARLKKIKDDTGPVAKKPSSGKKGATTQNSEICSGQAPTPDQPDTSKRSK

Row | Binder | binding [1] | binding [2]
1 | mitochondrial transcription factor A (TFAM) (protein, UniProt Q00059 43-246) SSVLASCPKKPVSSYLRFSKEQLPIFKAQNPDAKTTELIRRIAQRWRELPDSKKKIYQDAYRAEWQVYKEEISRFKEQLTPSQIMSLEKEIMDKHLKRKAMTKKKELTLLGKPKRPRSAYNVYVAERFQEAKGDSPQEKLKTVKENWKNLSDSEKELYIQHAKEDETRYHNEMKSWEEQMIEVGRKDLLRRTIKKQRKYGAEEC | binds | –
2 | POLG1 (Polymerase gamma), P54098 1-1239 (enzyme) MSRLLWRKVAGATVGPGPVPAPGRWVSSSVPASDPSDGQRRRQQQQQQQQQQQQQPQQPQVLSSEGGQLRHNPLDIQMLSRGLHEQIFGQGGEMPGEAAVRRSVEHLQKHGLWGQPAVPLPDVELRLPPLYGDNLDQHFRLLAQKQSLPYLEAANLLLQAQLPPKPPAWAWAEGWTRYGPEGEAVPVAIPEERALVFDVEVCLAEGTCPTLAVAISPSAWYSWCSQRLVEERYSWTSQLSPADLIPLEVPTGASSPTQRDWQEQLVVGHNVSFDRAHIREQYLIQGSRMRFLDTMSMHMAISGLSSFQRSLWIAAKQGKHKVQPPTKQGQKSQRKARRGPAISSWDWLDISSVNSLAEVHRLYVGGPPLEKEPRELFVKGTMKDIRENFQDLMQYCAQDVWATHEVFQQQLPLFLERCPHPVTLAGMLEMGVSYLPVNQNWERYLAEAQGTYEELQREMKKSLMDLANDACQLLSGERYKEDPWLWDLEWDLQEFKQKKAKKVKKEPATASKLPIEGAGAPGDPMDQEDLGPCSEEEEFQQDVMARACLQKLKGTTELLPKRPQHLPGHPGWYRKLCPRLDDPAWTPGPSLLSLQMRVTPKLMALTWDGFPLHYSERHGWGYLVPGRRDNLAKLPTGTTLESAGVVCPYRAIESLYRKHCLEQGKQQLMPQEAGLAEEFLLTDNSAIWQTVEELDYLEVEAEAKMENLRAAVPGQPLALTARGGPKDTQPSYHHGNGPYNDVDIPGCWFFKLPHKDGNSCNVGSPFAKDFLPKMEDGTLQAGPGGASGPRALEINKMISFWRNAHKRISSQMVVWLPRSALPRAVIRHPDYDEEGLYGAILPQVVTAGTITRRAVEPTWLTASNARPDRVGSELKAMVQAPPGYTLVGADVDSQELWIAAVLGDAHFAGMHGCTAFGWMTLQGRKSRGTDLHSKTATTVGISREHAKIFNYGRIYGAGQPFAERLLMQFNHRLTQQEAAEKAQQMYAATKGLRWYRLSDEGEWLVRELNLPVDRTEGGWISLQDLRKVQRETARKSQWKKWEVVAERAWKGGTESEMFNKLESIATSDIPRTPVLGCCISRALEPSAVQEEFMTSRVNWVVQSSAVDYLHLMLVAMKWLFEEFAIDGRFCISIHDEVRYLVREEDRYRAALALQITNLLTRCMFAYKLGLNDLPQSVAFFSAVDIDRCLRKEVTMDCKTPSNPTGMERRYGIPQGEALDIYQIIELTKGSLEKRSQPGP | – | binds
3 | Mitochondrial single stranded DNA binding protein (mtSSB) (protein, UniProt Q04837 17-148) ESETTTSLVLERSLNRVHLLGRVGQDPVLRQVEGKNPVTIFSLATNEMWRSGDSEVYQLGDVSQKTTWHRISVFRPGLRDVAYQYVKKGSRIYLEGKIDYGEYMDKNNVRRQATTIIADNIIFLSDQTKEKE | binds | –
